Source: article PMC12559739
These are yes or no findings as the source states them, for the method shown. Binding seen in cells or lysates may run through a third protein. Some binding calls cover weakened binding; strength is not graded here. Where a sequence is shown, tags or fusion partners need not be part of it.

Molecular target: StrepII-FLAG-tagged DCAF12 (human) (UniProt Q5T6F0)
Assay: co-IP; HEK293T co-transfected with SF-DCAF12 and HA-tagged constructs, MLN4924 for the final 6 h; whole-cell lysates, Strep-TactinXT affinity purification or anti-HA immunoprecipitation; western blot

binding: binds
B1: HA-tagged MOV10 (protein, UniProt Q9HCE1 1-1003)
chain: MPSKFSCRQLREAGQCFESFLVVRGLDMETDRERLRTIYNRDFKISFGTPAPGFSSMLYGMKIANLAYVTKTRVRFFRLDRWADVRFPEKRRMKLGSDISKHHKSLLAKIFYDRAEYLHGKHGVDVEVQGPHEARDGQLLIRLDLNRKEVLTLRLRNGGTQSVTLTHLFPLCRTPQFAFYNEDQELPCPLGPGECYELHVHCKTSFVGYFPATVLWELLGPGESGSEGAGTFYIARFLAAVAHSPLAAQLKPMTPFKRTRITGNPVVTNRIEEGERPDRAKGYDLELSMALGTYYPPPRLRQLLPMLLQGTSIFTAPKEIAEIKAQLETALKWRNYEVKLRLLLHLEELQMEHDIRHYDLESVPMTWDPVDQNPRLLTLEVPGVTESRPSVLRGDHLFALLSSETHQEDPITYKGFVHKVELDRVKLSFSMSLLSRFVDGLTFKVNFTFNRQPLRVQHRALELTGRWLLWPMLFPVAPRDVPLLPSDVKLKLYDRSLESNPEQLQAMRHIVTGTTRPAPYIIFGPPGTGKTVTLVEAIKQVVKHLPKAHILACAPSNSGADLLCQRLRVHLPSSIYRLLAPSRDIRMVPEDIKPCCNWDAKKGEYVFPAKKKLQEYRVLITTLITAGRLVSAQFPIDHFTHIFIDEAGHCMEPESLVAIAGLMEVKETGDPGGQLVLAGDPRQLGPVLRSPLTQKHGLGYSLLERLLTYNSLYKKGPDGYDPQFITKLLRNYRSHPTILDIPNQLYYEGELQACADVVDRERFCRWAGLPRQGFPIIFHGVMGKDEREGNSPSFFNPEEAATVTSYLKLLLAPSSKKGKARLSPRSVGVISPYRKQVEKIRYCITKLDRELRGLDDIKDLKVGSVEEFQGQERSVILISTVRSSQSFVQLDLDFNLGFLKNPKRFNVAVTRAKALLIIVGNPLLLGHDPDWKVFLEFCKENGGYTGCPFPAKLDLQQGQNLLQGLSKLSPSTSGPHSHDYLPQEREGEGGLSLQVEPEWRNEL
